No constants are given. Whether binding was seen depends on the method and setting. Binding seen in cells or lysates may run through a third protein. Some binding calls cover weakened binding; strength is not graded here. For part of these data: Tags and fused reporters may be left off the sequences shown.
T1: Flag-DJ-1 (from plasmid pFlag-DJ-1) (UniProt O88767)
T1 sequence: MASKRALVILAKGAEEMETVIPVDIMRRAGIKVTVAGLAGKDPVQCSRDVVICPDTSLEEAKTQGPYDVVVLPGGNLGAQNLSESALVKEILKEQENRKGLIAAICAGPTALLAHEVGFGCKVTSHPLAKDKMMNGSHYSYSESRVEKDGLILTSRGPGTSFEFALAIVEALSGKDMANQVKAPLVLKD

Sequences of proteins named here, by UniProt entry; tags and fusion partners are left off. Residues count along the entry.
UniProt P48721, residues 47-679: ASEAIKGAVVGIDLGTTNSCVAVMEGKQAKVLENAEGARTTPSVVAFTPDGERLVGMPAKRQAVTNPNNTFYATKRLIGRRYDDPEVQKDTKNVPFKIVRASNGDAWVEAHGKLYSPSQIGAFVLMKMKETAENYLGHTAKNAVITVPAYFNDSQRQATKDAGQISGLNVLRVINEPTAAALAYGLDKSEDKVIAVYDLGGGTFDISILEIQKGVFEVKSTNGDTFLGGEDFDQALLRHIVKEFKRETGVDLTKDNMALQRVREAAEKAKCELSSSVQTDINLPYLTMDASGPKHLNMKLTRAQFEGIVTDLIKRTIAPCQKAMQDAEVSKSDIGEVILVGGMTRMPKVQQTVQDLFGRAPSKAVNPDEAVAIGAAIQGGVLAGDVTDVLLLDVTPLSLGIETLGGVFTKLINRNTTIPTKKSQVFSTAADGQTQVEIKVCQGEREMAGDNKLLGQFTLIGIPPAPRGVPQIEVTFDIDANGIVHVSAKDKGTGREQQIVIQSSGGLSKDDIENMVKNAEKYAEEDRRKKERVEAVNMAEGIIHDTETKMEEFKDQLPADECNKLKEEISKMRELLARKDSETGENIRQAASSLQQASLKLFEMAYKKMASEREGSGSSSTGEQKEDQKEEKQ
UniProt P03889: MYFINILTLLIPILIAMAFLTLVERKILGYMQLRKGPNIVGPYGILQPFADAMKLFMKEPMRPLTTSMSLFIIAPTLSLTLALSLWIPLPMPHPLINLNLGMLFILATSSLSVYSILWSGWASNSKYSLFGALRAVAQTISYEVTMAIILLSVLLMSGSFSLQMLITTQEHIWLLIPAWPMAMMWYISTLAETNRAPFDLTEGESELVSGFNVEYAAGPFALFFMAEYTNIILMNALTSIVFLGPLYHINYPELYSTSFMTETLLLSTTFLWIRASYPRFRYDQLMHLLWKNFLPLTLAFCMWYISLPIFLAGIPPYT

T2: DJ-1 (rat (endogenous in H9c2)) (UniProt O88767)
T2 sequence: T1 sequence

B1: DJ-1 (protein, UniProt O88767 1-189)
chain: T1 sequence

Legend:
[1] = biological target: T1, Flag-DJ-1 (from plasmid pFlag-DJ-1); experiment: co-IP; H9c2 mitochondrial lysates (H/R, HPC + H/R, pFlag-DJ-1 + H/R, each with or without LV-shGrp75 knock-down); IP with anti-DJ-1 antibody or IgG, blot with anti-NDUFA4 or anti-ND1
[2] = biological target: T2, DJ-1 (rat (endogenous in H9c2)); experiment: as above
[3] = biological target: glucose-regulated protein 75 (Grp75) (rat (endogenous in H9c2)) (UniProt P48721); experiment: co-IP; H9c2 whole-cell lysates (control, H/R, HPC + H/R); IP with anti-Grp75 antibody or IgG, blot with anti-DJ-1; lysis buffer 50 mM Tris HCl, 150 mM NaCl, 1 mM EDTA, 1% Triton X-100; 4 °C overnight

Molecule	binding [1]	binding [2]	binding [3]
ND1 subunit of mitochondrial complex I (from UniProt P03889 1-318)	binds	binds	–
B1	–	–	binds
